# At least one read-out could not be matched to a standard name with certainty.
# Assay: Solubilization of Fullerene C60 by lysophospholipid in aqueous solutions
# Assay type: physicochemical
substance,measurement,value
lysophosphatidylcholine [LPC 18:0],solubilization of Fullerene C60,solubilized
